The values below come from PubChem BioAssay AID1487 (National Center for Advancing Translational Sciences (NCATS), 2009).

The list shows a part of the results. Further columns of the screen follow, without active or inactive calls. The list favours compounds with an active or inconclusive main result. Words in brackets tell the shape of the fitted curve; partial curves, single points and poor fits give uncertain potencies.

This test is described as follows: qHTS Assay for Modulators of Lamin A Splicing. The note with it: HeLa LMNA splicing GFP/RFP minigene ratio, 48 h. In short, it runs like this: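 S3 HeLa stable clones carrying a lamin A-EGFP splicing minigene plus DsRed2 were seeded at 600 cells/well in Opti-MEM with 2% FBS, pin-dosed and incubated 48 h at 37°C. Acumen cytometry (488 nm) gave the GFP/RFP total-intensity ratio.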

The mark [1] stands for this setting: measured here: GFP splicing reporter channel.
[2] abbreviates: measured here: RFP viability control channel.

As for `Cc1cc2nnc(SCC(=O)Nc3cc(S(=O)(=O)N4CCOCC4)ccc3Cl)n2c2ccccc12`, the AC50 by setting is: under setting [1], 12.6 µM [rising, single point]; under setting [2], 12.6 µM [rising, single point]. Take `CCc1ccc(NC(=O)COC(=O)CCCC2=NS(=O)(=O)c3ccccc3N2)cc1`: the AC50 under setting [2] was 0.891 µM [falling, full curve, poor fit].

Take `CC(=O)c1c(C)[nH]c(C(=O)COC(=O)c2cc(S(=O)(=O)N(C)c3ccccc3)ccc2Cl)c1C`: the AC50 runs as follows: under setting [1], 1.41 µM [rising, full curve, poor fit]; under setting [2], 5.01 µM [rising, partial curve, poor fit]. Take `CN(c1ccc(S(=O)(=O)N2CCOCC2)cn1)C1CCCCC1`: the AC50 was 17.8 µM [rising, partial curve] under setting [1] and 17.8 µM [rising, partial curve] under setting [2]. For the compound `O=C(N/N=C\c1ccc(-c2ccccc2[N+](=O)[O-])o1)C1COc2ccccc2O1` (stereo unspecified), under setting [2], the AC50 was 35.5 µM [rising, partial curve, poor fit]. Regarding `Cc1nnsc1C(=O)N/N=C/c1cccc(C(F)(F)F)c1`, the AC50 under setting [1] was 0.0631 µM [falling, full curve].

For the compound `CCC1CCCCN1CCCNC(=O)c1cc2c(=O)[nH]c3ccccc3c2n1C` (stereo unspecified), the concentration at half-maximal activity (AC50) is 0.02 µM [falling, full curve, poor fit] under setting [1] and 0.02 µM [falling, full curve, poor fit] under setting [2]. For `COc1ccc(-c2nc3cnc(Oc4ccccc4)nc3n(CCC#N)c2=O)cc1`, the AC50 runs as follows: under setting [1], 3.98 µM [falling, full curve]; under setting [2], 5.62 µM [falling, partial curve]. Take `CCCCNc1cc(NC(C)=O)cc2cc(OC)c(OC)cc12`: the half-maximal activity concentration (AC50) under setting [1] was 1.26 µM [falling, single point]. `O=C(N=Nc1c(O)n(Cc2ccccc2)c2ccccc12)c1cc2ccccc2cc1O`: the AC50 is 3.98 µM [rising, partial curve] under setting [1] and 3.55 µM [rising, full curve] under setting [2]. `CCS(=O)(=O)Nc1ccc(-c2cn3c(C)csc3n2)cc1`: the half-maximal activity concentration (AC50) under setting [1] is 1.41 µM [rising, full curve, poor fit]. For `Cc1ccc(C2=NN=C(NC(=O)CSc3nc(C)cc(C)n3)SC2)cc1`, under setting [1], the AC50 is 12.6 µM [falling, partial curve]. With `COc1ccc(Oc2ncc3nc(-c4cccc(C#N)c4)c(=O)n(CCC#N)c3n2)cc1`, under setting [1], the AC50 was 15.8 µM [falling, single point]. Consider `Cc1noc(C)c1S(=O)(=O)Nc1ccc(C(=O)N2CCN(c3ccc(Cl)cc3)CC2)cc1`, for which the concentration at half-maximal activity (AC50) under setting [1] is 3.98 µM [rising, full curve] and the AC50 under setting [2] is 8.91 µM [rising, partial curve].
